Source: patent US8614247B2, “Methods for preventing, attenuating or treating pulmonary hypertension using a serotonin transporter inhibitor, and pharmaceutical compositions for the treatment thereof” (Institut National de la Sante et de la Recherche Medicale, priority 2003, dated 2013)

Tested on: mice exposed to chronic hypoxia
Assay type: in vivo, mice (C57BL6/J)
Conditions: for LV + S weight: two-week treatment under continuous hypoxia; for LV+S weight in hypoxic mice versus mice under normoxic conditions: end of exposure to chronic hypoxia
Method: All experiments were performed using adult male mice (C57BL6/J, 8 weeks old) in conformity with the institutional guidelines that are in compliance with national and international laws and policies. […] To establish the hypoxic environment, the chamber was flushed with a mixture of room air and nitrogen, and the gas was recirculated. The chamber environment was monitored using an oxygen analyzer (Servomex OA150, Crowborough, England). Carbon dioxide was removed by soda lime granules, and excess humidity was prevented by cooling the recirculation circuit. The chamber temperature was maintained at 22-24° C. The chamber was opened every other day for 1 hour to clean the cages and replenish food and water supplies. Normoxic mice were kept in the same room, with the same light-dark cycle. […] After incision of the abdomen and diaphragm, a 26-gauge needle connected to a pressure transducer was inserted into the right ventricle, and RVSP was recorded immediately. Blood was then sampled for hematocrit determination. […] The right ventricle (RV) was dissected from the left ventricle+septum (LV+S), and these dissected samples were weighed. The lungs were fixed by intratracheal infusion of 4% aqueous buffered formalin at a pressure of 23 cm H2O. The entire specimen was immersed in a bath of the same fixative for one week. A midsagittal slice of the right lung including the apical, azygous and diaphragmatic lobes was processed for paraffin embedding. Sections (5 μm thick) were cut for light microscopy and stained with hematoxylin-phloxin-saffron and orcein-picroindigo-carmine. In each mouse, a total of 50-60 […] vessels accompanying either alveolar ducts or alveoli were analyzed by an observer blinded to treatment. Each vessel was categorized as nonmuscular (no evidence of any vessel wall muscularization), partially muscular (SMCs identifiable in less than three-fourths of the vessel circumference), or fully muscular (SMCs in more than three-fourths of the vessel circumference). […] The percentage of pulmonary vessels in each muscularization category was determined by dividing the number of vessels in that category by the total number counted in the same experimental group. […] The animals were treated once a day during the two-week exposure to hypoxia.

COc1ccc(NC(=O)c2ccc(-c3ccc(-c4noc(C)n4)cc3C)cc2)cc1N1CCN(C)CC1 [GR127935, 2′-methyl-4′-(5-methyl-[1,2,4]oxadiazol-3-yl)-biphenyl-4-carboxylic acid [4-methoxy-3-(4-methyl-piperazine-1-yl)-phenyl]amide] was tested, and the “LV + S weight” value (2 mg/kg/day) was 73.4 ± 3.9 mg, the “LV + S weight” value (10 mg/kg/day) was 74.0 ± 4.8 mg and the “LV+S weight in hypoxic mice versus mice under normoxic conditions” value was “did not differ”.

In the case of CNCCC(Oc1ccc(C(F)(F)F)cc1)c1ccccc1 (stereo not shown) [fluoxetine], the “LV+S weight in hypoxic mice versus mice under normoxic conditions” value is reported as “did not differ”.

Like-named read-outs stand apart in the source and are kept apart here.
